Reference: PubChem BioAssay AID1159584 (Peter MacCallum Cancer Centre, 2016)
The whole screen tested about 18,000 reagents; below is a part drawn at random. The record does not give: the amount of reagent, the time to read-out.

Assay: 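Knock-downs that harm CDH1-null cells more than parental MCF10A cells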 (primary screen)
System: human MCF10A breast epithelial cells, parental and CDH1-null
Reagents: siRNA against human genes
Measured: 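ATP luminescence (CellTiter-Glo) viability per line relative to mean mock wells over all plates, and the ratio of CDH1-null to parental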
Scale: CDH1-null / parental viability ratio: higher = CDH1-null cells survive relatively better than parental; CDH1-null viability vs mock: higher = more viable CDH1-null cells; parental viability vs mock: higher = more viable parental cells

| gene | PubChem SID | CDH1-null / parental viability ratio | CDH1-null viability vs mock (fraction of mock) | parental viability vs mock (fraction of mock) |
| --- | --- | --- | --- | --- |
| ZC3H12A (GeneID 80149) | SID152155166 | 1.14 | 1 | 0.88 |
| MRPL13 (GeneID 28998) | SID134317777 | 0.82 | 0.77 | 0.94 |
| GPR62 (GeneID 118442) | SID152154728 | 1.32 | 1 | 0.76 |
| YRDC (GeneID 79693) | SID152154636 | 0.95 | 0.52 | 0.55 |
| DKK4 (GeneID 27121) | SID152155142 | 1.53 | 0.72 | 0.47 |
| PCDHGA8 (GeneID 9708) | SID134317761 | 1.05 | 0.8 | 0.76 |
| VSIG10 (GeneID 54621) | SID135623973 | 1.23 | 1.08 | 0.88 |
| GUCA2B (GeneID 2981) | SID135622398 | 0.91 | 0.62 | 0.68 |
| SLF2 (GeneID 55719) | SID152154576 | 1.1 | 0.74 | 0.67 |
| TRIM26 (GeneID 7726) | SID152151511 | 0.99 | 0.94 | 0.95 |
| BSDC1 (GeneID 55108) | SID152151083 | 1 | 0.8 | 0.8 |
| MPIG6B (GeneID 80739) | SID134315347 | 0.94 | 0.82 | 0.87 |
| NAA16 (GeneID 79612) | SID134317565 | 0.95 | 1.1 | 1.16 |
| FMC1 (GeneID 154791) | SID152156453 | 0.84 | 0.38 | 0.45 |
| NT5M (GeneID 56953) | SID152148360 | 1.5 | 0.84 | 0.56 |
| SSX5 (GeneID 6758) | SID134321278 | 2.02 | 0.81 | 0.4 |
| GYG2 (GeneID 8908) | SID135621228 | 1.24 | 1.08 | 0.87 |
| ZNF776 (GeneID 284309) | SID134322088 | 1 | 0.94 | 0.94 |
| EPB41L4A (GeneID 64097) | SID135624177 | 0.91 | 1.01 | 1.11 |
| SYNRG (GeneID 11276) | SID134316651 | 1.1 | 0.68 | 0.62 |
| RNF4 (GeneID 6047) | SID152156313 | 0.9 | 0.88 | 0.98 |
| COX6C (GeneID 1345) | SID135622461 | 1.05 | 0.87 | 0.83 |
| SKIL (GeneID 6498) | SID134315035 | 1.05 | 0.8 | 0.76 |
| PTPDC1 (GeneID 138639) | SID134313451 | 1.48 | 0.62 | 0.42 |
| KATNB1 (GeneID 10300) | SID152153311 | 1 | 0.94 | 0.94 |
| PPM1G (GeneID 5496) | SID134310836 | 1.3 | 0.95 | 0.73 |
| PSMB3 (GeneID 5691) | SID134321422 | 1.55 | 0.34 | 0.22 |
| ILKAP (GeneID 80895) | SID56479237 | 1.38 | 0.91 | 0.66 |
| NDUFV1 (GeneID 4723) | SID134320266 | 1.22 | 1.17 | 0.96 |
| INPP5A (GeneID 3632) | SID152151539 | 1.64 | 0.82 | 0.5 |
| CRADD (GeneID 8738) | SID152148694 | 1.5 | 1.08 | 0.72 |
| SLC5A7 (GeneID 60482) | SID134312641 | 0.76 | 0.62 | 0.82 |
| CLEC4E (GeneID 26253) | SID152152834 | 0.9 | 1 | 1.11 |
| TMEM126A (GeneID 84233) | SID134318918 | 1.04 | 1.04 | 1 |
| RPUSD3 (GeneID 285367) | SID152155487 | 1.2 | 0.66 | 0.55 |
| FSTL3 (GeneID 10272) | SID152150174 | 0.94 | 0.51 | 0.54 |
| MYORG (GeneID 57462) | SID152154033 | 1.15 | 0.92 | 0.8 |
| LITAF (GeneID 9516) | SID152153638 | 0.84 | 0.58 | 0.69 |
| NUDCD3 (GeneID 23386) | SID152153937 | 0.74 | 0.57 | 0.77 |
| ZNF326 (GeneID 284695) | SID152153535 | 0.82 | 0.66 | 0.8 |
| BMP8A (GeneID 353500) | SID135623566 | 1.1 | 0.76 | 0.69 |
| OR6C1 (GeneID 390321) | SID152146863 | 1 | 0.85 | 0.85 |
| ALDH1L2 (GeneID 160428) | SID152150650 | 0.83 | 0.82 | 0.99 |
| MTA1 (GeneID 9112) | SID152156737 | 0.97 | 0.85 | 0.88 |
| ZNF45 (GeneID 7596) | SID135623386 | 1.07 | 1.17 | 1.09 |
| ARHGEF9 (GeneID 23229) | SID152152360 | 1.09 | 1 | 0.92 |

Just “parental viability vs mock (fraction of mock)”, for 6 of the entries above:
SSX5 (GeneID 6758) [SID134321278]	0.4
GYG2 (GeneID 8908) [SID135621228]	0.87
ZNF776 (GeneID 284309) [SID134322088]	0.94
EPB41L4A (GeneID 64097) [SID135624177]	1.11
SYNRG (GeneID 11276) [SID134316651]	0.62
RNF4 (GeneID 6047) [SID152156313]	0.98
